No constants are given. Whether binding was seen depends on the method and setting. Some binding calls cover weakened binding; strength is not graded here.
Biological target: T1, MICA (MHC class I chain-related molecule A) on TRAMP-C2-MICA cells (human) (UniProt Q29983)
T1 sequence (looked up): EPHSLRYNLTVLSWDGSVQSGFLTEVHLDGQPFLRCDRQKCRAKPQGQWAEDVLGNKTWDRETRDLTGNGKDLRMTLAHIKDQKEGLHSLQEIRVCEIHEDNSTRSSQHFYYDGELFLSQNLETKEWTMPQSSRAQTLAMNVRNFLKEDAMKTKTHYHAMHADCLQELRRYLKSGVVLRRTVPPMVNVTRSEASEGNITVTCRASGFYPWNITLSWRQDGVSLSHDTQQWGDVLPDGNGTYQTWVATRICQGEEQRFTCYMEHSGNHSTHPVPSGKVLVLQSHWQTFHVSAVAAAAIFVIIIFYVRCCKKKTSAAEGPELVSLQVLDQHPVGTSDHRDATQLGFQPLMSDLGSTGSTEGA
Assay: flow cytometry on TRAMP-C2 cells transfected with MICA

B1: scFv-H9 (scFv)
scFv: MAQVQLQQSGAELVKPGASVKLSCKTSGYTFSNYYMSWLKQMPGQNIEWIGNIYGGNGGTGYNQKFKGKATLTVDKSSSTAYMQLSSLTSEDSAVYFCARGDLYAMDYWGQGTTVTVSSGGGGSGGGGSGGGGSDIVLTQSPSSMSASLGDRVTITCQASQDIGNNLIWFQQKPGKSPRPMIYYATNLANGVPSRFSGSGSGTSYSLTISSMEAEDAATYYCQQWSSNPYTFGGGTKLEIKRAAA
- binding: binds

— patent publication US20180237526A1
